Assay results as given in PubChem BioAssay AID651804 (National Center for Advancing Translational Sciences (NCATS), 2012).
Screen size: about 1,200 compounds; about 20 (2%) were called active. Not shown: some 23% with an inconclusive outcome. The call rests on the fitted dose curve; in most records, active means well fitted inhibition curve with a large enough effect; inconclusive means small, poorly fitted or top-dose-only effect; inactive means no such curve, though single readings can be large or run the other way. The list shows a part of the results.

Amino acid sequences for entries named in this document (tags omitted). A change or cut given only in a name is not applied to a line headed by its entry.
UniProt P11308: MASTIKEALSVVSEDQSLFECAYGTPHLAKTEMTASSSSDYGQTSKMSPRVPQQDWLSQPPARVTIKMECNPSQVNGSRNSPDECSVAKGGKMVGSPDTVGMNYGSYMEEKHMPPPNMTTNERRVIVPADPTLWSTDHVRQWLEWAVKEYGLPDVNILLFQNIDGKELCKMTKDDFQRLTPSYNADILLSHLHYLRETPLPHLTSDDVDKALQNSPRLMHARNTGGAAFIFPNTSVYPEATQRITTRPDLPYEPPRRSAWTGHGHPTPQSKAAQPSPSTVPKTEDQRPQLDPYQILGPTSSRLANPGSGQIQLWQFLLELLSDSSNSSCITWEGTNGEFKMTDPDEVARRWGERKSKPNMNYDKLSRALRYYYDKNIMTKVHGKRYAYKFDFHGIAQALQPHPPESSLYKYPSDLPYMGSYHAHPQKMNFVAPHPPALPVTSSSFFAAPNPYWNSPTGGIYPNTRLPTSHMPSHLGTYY

Target: Transcriptional regulator ERG (Homo sapiens) (UniProt P11308)
Test: qHTS for Small Molecule Inhibitors of the ERG Ets/DNA interaction: HTRF assay against cherry picks
Settings: His-ERG Ets domain with biotin-DNA; series mostly up to 154 µM; activity change, negative = inhibition: at the top concentration
Summary of the method: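 HTRF of His-tagged ERG Ets domain (200 nM solution) with biotin-DNA (200 nM solution) in 300mM KCl, 50mM Tris-HCl pH 7.5, 1mM EDTA, 1mM DTT; 10 min RT. Anti-His cryptate donor plus streptavidin acceptor added, 10 min, FRET read at 615/665 nm.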
Potency means the concentration at half of the fitted maximal effect.

Activity change, negative = inhibition, inactive:
COc1ccc(S(=O)(=O)N2CCc3ccccc32)cc1C(=O)N(CC(C)C)C1CCS(=O)(=O)C1 (centres undefined) -14.9%
COc1ccc(-c2csc3ncnc(N4CCN(S(=O)(=O)c5ccccc5C#N)CC4)c23)cc1 206%
O=C(NCc1ccccc1)N1CCNCC1 -7.75%
CC1(C)C2CCC1(C)C(NCC(O)COc1ccc(C#N)cc1)C2 (centres undefined) -2.02%
CN1CCN(C(=O)C2=C[C@@H](C(C)(C)C)C[C@@H](OCc3ccc(CO)cc3)O2)CC1 -24.8%
CNC(=O)c1cccc(-n2c(C)nc3cccnc32)c1C 3.18%
CCOc1ccc(C(CC(=O)O)NC(=O)Cc2ccc(Cl)cc2)cc1 (centres undefined) -9.92%
COc1ccc(NC(=O)C2CC(=O)n3c(nc4ccccc43)N2)cc1 (centres undefined) -19.4%
Cc1cc(NC(=O)COc2ccc(F)c(Cl)c2)no1 -2.39%
COc1ccc(S(=O)(=O)NCC2CC3C=CC2C3)cc1OC (centres undefined) -23.8%
CC(C)C(=O)Nc1ccc(-c2nc3ncccc3o2)cc1 -29.3%
Cc1ccccc1OCC(=O)Nc1ccc2[nH]ncc2c1 -5.15%
COc1cc(/C=C/C(=O)OCC(=O)NC(=O)NC2CCCCC2C)ccc1OC(F)F (centres undefined) -0.477%
Cc1nc(Nc2cccc(F)c2)c2oc3ccccc3c2n1 -29.2%
COc1ccc(C)cc1N(C(=O)c1ccc(C#N)cc1)C1=NC(C)(C)CS1 -32%
Cc1ccccc1NC(=O)c1ccccc1-c1ccccc1 -25.8%
O=C(c1c(F)cccc1Cl)N1CCN(c2ccccn2)CC1 -11%
COc1ccc(NS(=O)(=O)c2cccc(NC(=O)NC3CCCCC3)c2)cc1 -35.2%
Nc1ccc2[nH]ncc2c1 -70.6%
COc1ccc(CNC(=O)N[C@@H](Cc2c[nH]c3ccccc23)C(=O)O)cc1 -23.2%
Cc1ccc(NC(=O)Cc2c(O)c3ccccc3[nH]c2=O)c(C)c1 -9.39%
O=C(CCc1c[nH]c2ccccc12)NCc1ccco1 -5.25%
CCN(C(=O)COC(=O)c1ccc(=O)n(Cc2ccccc2)n1)C1CCS(=O)(=O)C1 (centres undefined) -38%
Cc1ccc(OCCn2cc(/C=N/NC(=O)c3ccncc3)c3ccccc32)cc1 -26.7%
COc1ccc(C(=O)Nc2nc(-c3ccc(OC)cc3)c(-c3ccc([N+](=O)[O-])cc3)s2)cc1 -11.9%
CC(C)=CCOc1ccc2c(C)c(CC(=O)N3C[C@H]4C[C@@H](C3)c3cccc(=O)n3C4)c(=O)oc2c1C -20.2%
COc1ccccc1OCC(O)CN1CCN(CC(=O)Nc2c(C)cccc2C)CC1 (centres undefined) -24.2%
COc1ccc(OCCn2c(=O)sc3ccccc32)cc1 -23%
CCOC(=O)C(=O)c1c(-c2ccccc2)nc2ccccn12 -21.9%
O=C(CCNS(=O)(=O)c1ccc2c(c1)CCN2C(=O)C1CC1)Nc1ccc(F)cc1F -16.4%
Cc1ccc(-c2nc(CN3CCCC(C(=O)N4CCOCC4)C3)c(C)o2)cc1 (centres undefined) -9.66%
COCC(=O)NCc1ccc2c(c1)cc(C)n2C -22.5%
Cc1cc(C)c(/C=C2\C(=O)Nc3ccccc32)[nH]1 -28.8%
COc1cccc(NC(=O)NNC(=O)c2ccc3c(c2)NC(=O)C(C)(C)O3)c1 -10.2%
COC(=O)C(CCSC)NC(=O)c1cc2c(n(-c3ccccc3)c1=O)CC(C)(C)CC2=O (centres undefined) -23.7%
O=C(/C=C/c1ccccc1)NCCc1nc2ccccc2[nH]1 -14.6%
O=C(NCCN1CCN(Cc2ccccc2Cl)CC1)Nc1ccccc1 -28.7%
CC1(C)CC(=O)C2=C(C1)Nc1ccccc1NC2c1nc2ccccc2[nH]1 (centres undefined) -40.4%
COc1cc(CO)ccc1OCC(=O)Nc1cccc2ccccc12 -34.3%
O=C(CN1C(=O)NC2(CCCC2)C1=O)Nc1nc2ccccc2s1 -25.7%
CC(=O)Oc1ccc(C(=O)Nc2ccccc2C(=O)Nc2ccc(C(=O)O)cc2)cc1 -15.4%
COc1cc(NC(=O)COC(=O)CNC(=O)C2CCCCC2)cc(OC)c1 -17.5%
COc1ccc(CNCCC2(C(C)C)CCOC(C)(C)C2)cc1 (centres undefined) -13.4%
COc1ccc(-c2cc(C(F)(F)F)n3nc(C(=O)N(C)Cc4ccccc4)cc3n2)cc1OC -4.46%
CC(=O)Nc1cccc(S(C)(=O)=O)c1 -12%
COCCn1c(=O)c2c(nc3n2CC(C)CN3CCc2ccccc2)n(C)c1=O (centres undefined) -26.4%
CC(C)c1ccc(NC(=O)CSc2nc(-c3ccccc3F)nc3nc[nH]c23)cc1 384%
COc1ccc(CCNC(=O)c2cccc(S(=O)(=O)N3CCCC3)c2)cc1 -24.1%
CCn1nc(C)cc1C(=O)N1CCCC(N2CCN(Cc3ccc4c(c3)OCO4)CC2)C1 (centres undefined) -15.2%
COc1cnn(-c2cccc(Cl)c2)c(=O)c1Cl -10.6%
O=C(COC(=O)COc1ccc(Cl)cc1)NCCCc1ccccc1 -25.1%
COc1ccc(CC(=O)OCC(=O)c2ccc(OC)cc2)cc1 -23.3%
O=C(CCC1CCCN(C(=O)c2ccsc2)C1)NCc1ccc(F)c(F)c1 (centres undefined) -5.3%
CC(=O)Nc1ccc(S(=O)(=O)NCC(=O)OCC(=O)NCc2ccco2)cc1 3.34%
CC(=O)NNc1cc(N2CCOCC2)nc(N2CCOCC2)n1 0.53%
CC(C)n1cc(/C=N/NC(=O)COc2cccc3cccnc23)c2ccccc21 -21.4%
CC(C)CNC(=O)CCc1nc(-c2ccccc2)no1 -8.75%
COc1ccccc1NS(=O)(=O)c1cc(C(=O)N2CCCC2)ccc1C -12.7%
CN(C(=O)CSc1nc(-c2ccccc2)c(-c2ccccc2)o1)C1CCS(=O)(=O)C1 (centres undefined) -10.6%
Cc1cccc(C)c1OCC(=O)N(Cc1ccc(Cl)cc1)C1CCS(=O)(=O)C1 (centres undefined) 4.62%
O=C(O)CNC(=O)CC1S/C(=N/N=C/c2ccccc2O)NC1=O (centres undefined) -32.7%
Cc1cccc(C)c1NC(=O)C1(N2C(=O)CC2c2ccccc2)CCCCC1 (centres undefined) 0.955%
COc1ccc(NC(=O)COc2ccccc2Cc2ccccc2)cn1 -15.4%
NC(=O)c1cc(S(=O)(=O)NCCc2ccccc2)cs1 -10.8%
NC(=O)c1ccccc1O -9.23%
O=C(/C=C/c1ccc(Br)cc1)c1ccc(NC2=NCCCS2)cc1 -12.7%
CCCCC1=CC2=CC(=O)C(C)(OC(=O)CC)C(=O)C2=CN1CCOC (centres undefined) -15.9%

A draw from above in order of formula weight, low to high:
Activity change, negative = inhibition, inactive:
NC(=O)c1ccccc1O -9.23%
CNC(=O)c1cccc(-n2c(C)nc3cccnc32)c1C 3.18%
Cc1ccccc1OCC(=O)Nc1ccc2[nH]ncc2c1 -5.15%
Cc1ccccc1NC(=O)c1ccccc1-c1ccccc1 -25.8%
Cc1nc(Nc2cccc(F)c2)c2oc3ccccc3c2n1 -29.2%
COc1ccc(OCCn2c(=O)sc3ccccc32)cc1 -23%
COc1ccc(CC(=O)OCC(=O)c2ccc(OC)cc2)cc1 -23.3%
COc1ccc(NC(=O)C2CC(=O)n3c(nc4ccccc43)N2)cc1 (centres undefined) -19.4%
O=C(O)CNC(=O)CC1S/C(=N/N=C/c2ccccc2O)NC1=O (centres undefined) -32.7%
COc1ccc(CNC(=O)N[C@@H](Cc2c[nH]c3ccccc23)C(=O)O)cc1 -23.2%
O=C(NCCN1CCN(Cc2ccccc2Cl)CC1)Nc1ccccc1 -28.7%
COc1cc(NC(=O)COC(=O)CNC(=O)C2CCCCC2)cc(OC)c1 -17.5%
CC(C)n1cc(/C=N/NC(=O)COc2cccc3cccnc23)c2ccccc21 -21.4%
COCCn1c(=O)c2c(nc3n2CC(C)CN3CCc2ccccc2)n(C)c1=O (centres undefined) -26.4%
CC(=O)Oc1ccc(C(=O)Nc2ccccc2C(=O)Nc2ccc(C(=O)O)cc2)cc1 -15.4%
CCn1nc(C)cc1C(=O)N1CCCC(N2CCN(Cc3ccc4c(c3)OCO4)CC2)C1 (centres undefined) -15.2%
CN(C(=O)CSc1nc(-c2ccccc2)c(-c2ccccc2)o1)C1CCS(=O)(=O)C1 (centres undefined) -10.6%
COC(=O)C(CCSC)NC(=O)c1cc2c(n(-c3ccccc3)c1=O)CC(C)(C)CC2=O (centres undefined) -23.7%
CC(C)=CCOc1ccc2c(C)c(CC(=O)N3C[C@H]4C[C@@H](C3)c3cccc(=O)n3C4)c(=O)oc2c1C -20.2%

Next part.

Potency, active:
O=C1c2ccccc2C(=O)c2c1ncn2-c1ccccc1 15.8 µM
O=C1c2ccc3c4c(ccc(c24)C(=O)N1CCCCO)C(=O)N(CCCCO)C3=O 20 µM
